Experimental data: patent US10750762B2, “Bio-based N-acetyl-L-methionine and use thereof” (CJ Cheiljedang Corporation, priority 2015, dated 2020)

Assay: Milk production and composition on feeding N-acetyl-L-methionine
Assay type: in vivo, dairy cows
Procedure: Based on the in vitro evaluation, the N-acetyl-L-methionine, for which high digestive degradation rate in the small intestine and bypass rate in the rumen had been observed, was subjected to verify its efficiency through a substantial evaluation with dairy cows. In order for this, the cows were divided into two separated groups, and the change in milk composition depending on presence or absence of the N-acetyl-L-methionine was analyzed during the evaluation. For this, eight dairy cows were divided into two groups so that each group consists of four cows, respectively. Additionally, the N-acetyl-L-methionine was added to the feed composition (Table 12) which are fed by the four cows in one group (30 g of N-acetyl-L-methionine by each cow per a day), and it was carried out for 84 days. • Group 1: Non-addition of N-acetyl-L-methionine • Group 2: Addition of N-acetyl-L-methionine

## CSCC[C@H](NC(C)=O)C(=O)O [N-acetyl-L-methionine]
30 g per cow per day in feed, 84 days
  Amount of feed intake (DMI): 25.4 kg/day
Presence or absence of N-acetyl-L-methionine
  change in the total feed intake (dry matter intake, DMI): not observed
Vs non-addition group, 30 g per cow per day, 84 days
  Amount of feed intake (DMI), rate of increase (%): 0.0%
